In article PMC4043118 one finds binding data, which are given here for one molecule.

Results are given in words; binding and its absence hold for the method and conditions named. Some entries that bind do so weakly or less than the wild type.

The experiment addresses T1, Pneumolysin (Streptococcus pneumoniae), P0C2J9.
T1 chain: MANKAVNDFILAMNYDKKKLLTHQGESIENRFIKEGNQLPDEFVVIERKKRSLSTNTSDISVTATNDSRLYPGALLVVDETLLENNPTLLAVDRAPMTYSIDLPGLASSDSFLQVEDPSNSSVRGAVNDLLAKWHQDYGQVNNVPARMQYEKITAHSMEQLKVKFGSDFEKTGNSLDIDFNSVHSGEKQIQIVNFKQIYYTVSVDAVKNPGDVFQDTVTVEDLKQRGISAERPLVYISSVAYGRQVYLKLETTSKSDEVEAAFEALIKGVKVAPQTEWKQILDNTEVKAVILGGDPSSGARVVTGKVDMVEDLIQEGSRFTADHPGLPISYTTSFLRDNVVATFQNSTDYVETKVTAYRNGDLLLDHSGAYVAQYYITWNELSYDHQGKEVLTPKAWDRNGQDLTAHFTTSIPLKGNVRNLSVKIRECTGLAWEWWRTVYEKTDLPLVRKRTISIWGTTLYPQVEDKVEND
The experiment can be described thus: cryo-EM structure; cryo-electron tomography with sub-tomogram classification and averaging; purified pneumolysin on liposomes (egg phosphatidylcholine : cholesterol : dicetyl phosphate 10 : 10 : 1, cholesterol to protein 100 : 1), 37°C for 5 s or 1 min, phosphate buffered saline; membrane-bound oligomers (rings and arcs, pre-pore and pore states); both purified. Conditions: remark: other sources report otherwise.

B1: Pneumolysin, P0C2J9 1-471 (protein)
chain: T1 chain
As to B1, the binding result is recorded as “binds”.
